# Assay results from PubChem BioAssay AID2685 (National Center for Advancing Translational Sciences (NCATS), 2010).
# The other results are listed elsewhere or left out. These are further read-outs of the screen, such as a control signal, another cell line or another target. No call is given for them. The list favours compounds with an active or inconclusive main result. Words in brackets tell the shape of the fitted curve; partial curves, single points and poor fits give uncertain potencies.
# Test: qHTS Assay for Lipid Storage Modulators in Drosophila S3 Cells;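 for cell number change: cells counted by Cell Tracker Red CMTPX staining in the red channel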
# Settings: BODIPY lipid droplet fluorescence, 18-24 h; for cell number change: measured here: cell count max response, cells fed with added oleic acid
# Procedure, shortened: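 Drosophila S3 cells got compounds at several concentrations plus oleic acid (400 uM solution). Laser-scanning cytometry with 488 nm excitation read lipid droplets at 500-530 nm and cells at 575-640 nm. Percent activity was relative to 20 uM Triacsin C.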
# [1] = measured here: lipid fluorescence (Fed channel) AC50, cells fed with added oleic acid
# [2] = measured here: cell number channel AC50, cells fed with added oleic acid
Structure (SMILES),cell number change [%],AC50 [1],AC50 [2]
Cc1ccc(SC(C)C(=O)N2CCN(c3ccccc3)CC2)cc1 (centres undefined),-7.67,–,–
NNC(=O)CN1C(c2cccc(Cl)c2)=Nc2ccc(Br)cc2C1c1ccccc1 (centres undefined),5.29,"0.82 µM [rising, full curve, poor fit]",–
CN(C(=O)c1sc2nc(N3CCCC3)c3c(c2c1N)CC(C)(C)OC3)c1ccccc1,-11.6,"6.51 µM [rising, single point]",–
O=C(COC(=O)c1ccccn1)NC12CC3CC(CC(C3)C1)C2,-23.1,"29.1 µM [falling, single point]",–
COCCNC(=O)Cc1ccc(F)cc1,84.3,"29.1 µM [rising, single point]","0.58 µM [rising, single point]"
CCOC(=O)C(Cc1ccc(NC(=O)/C(=C/c2ccc(OC(C)=O)cc2)NC(C)=O)cc1)N1C(=O)c2ccccc2C1=O (centres undefined),-19.1,–,"2.91 µM [falling, partial curve]"
Cc1nn(CC(C)C)c(Cl)c1C(=O)N(C)CC(=O)Nc1c(Cl)cccc1Cl,10.1,"2.06 µM [falling, single point]",–
COc1cc(CNCc2cccc(OC)c2OC)cc(OC)c1,-18.2,"6.51 µM [falling, single point]",–
COC(=O)c1nc(NC(=O)c2ccccc2Br)n[nH]1,70.6,–,–
CCc1ccc(CNc2ccc(N3CCN(C(C)=O)CC3)cc2)cc1,1.26,"29.1 µM [rising, single point]",–
CC(=O)N/N=C/C1=CCC2CC1C2(C)C (centres undefined),-12.2,"1.03 µM [falling, full curve, poor fit]",–
COc1ccc(NC(=O)/C(C#N)=C/c2ccc(Sc3nncn3C)c([N+](=O)[O-])c2)cc1,-29.2,"22.4 µM [falling, partial curve, poor fit]",–
CCCOc1nc2c(c(=O)n(C)c(=O)n2C)n1Cc1cccc2ccccc12,-38.3,–,"16.4 µM [falling, single point]"
COc1cc(CC(=O)OCC(=O)N2CC(=O)Nc3ccccc32)cc(OC)c1OC,10.1,–,"2.59 µM [rising, single point]"
COc1ccc(-c2[nH]ncc2N=Nc2ccccc2)cc1,5.48,"0.651 µM [rising, single point]","0.731 µM [rising, single point]"
COCCN1C(=O)N(c2ccc(Cl)cc2)C(=O)C1CC(=O)Nc1cc(OC)cc(OC)c1 (centres undefined),–,"13 µM [rising, partial curve]",–
Cc1nnc(SCC(=O)N(CC(C)C)C2CCS(=O)(=O)C2)n1N (centres undefined),-8.4,"1.64 µM [rising, partial curve, poor fit]",–
CCCC(C)C(=O)Nc1ccc(C(N)=O)cc1 (centres undefined),-91.9,"18.4 µM [falling, partial curve]","16.4 µM [falling, partial curve]"
CCCCn1c(SCC(=O)NNC(=O)c2ccco2)nnc1-c1ccco1,17.8,–,"3.66 µM [falling, single point]"

# Retrieved by structure from above:
Structure (SMILES),cell number change [%],AC50 [1],AC50 [2]
COc1ccc(-c2[nH]ncc2N=Nc2ccccc2)cc1,5.48,"0.651 µM [rising, single point]","0.731 µM [rising, single point]"
CCCC(C)C(=O)Nc1ccc(C(N)=O)cc1 (centres undefined),-91.9,"18.4 µM [falling, partial curve]","16.4 µM [falling, partial curve]"

# Additional records follow:

Structure (SMILES),cell number change [%],AC50 [1],AC50 [2]
O=C(NCc1ccco1)C1CCCN1C(=O)Nc1ccccc1 (centres undefined),-2.73,–,"0.58 µM [falling, single point]"
Cc1cc(OCC(=O)N(C)Cc2ccccc2)ccc1Cl,2.16,"7.31 µM [rising, partial curve, poor fit]",–
COc1ccc(CCNC(=O)CC(C)(C)CC2=NS(=O)(=O)c3ccccc3N2)cc1OC,–,"29.1 µM [falling, single point]",–
CC(C(=O)O)n1nc2ccccc2n1 (centres undefined),-5.31,"0.731 µM [rising, single point]",–
COc1ccc2nc(NC(=O)Nc3ccccc3OC)sc2c1,–,"6.51 µM [falling, partial curve]",–
CC(C)C[C@H]1CN=C(Nc2ccccc2)N1CCc1ccc(F)cc1,11.7,"3.26 µM [falling, single point]","6.51 µM [falling, single point]"
CCC(C)OC(=O)c1[nH]c2c(c1C)C(=O)CC(c1ccc(N(C)C)cc1)C2 (centres undefined),–,–,"0.184 µM [rising, full curve, poor fit]"
O=C(/C=C/c1ccc2c(c1)OCO2)Nc1nc(-c2ccccc2)cs1,-40.1,–,"32.6 µM [falling, partial curve]"
Cc1cc(NS(=O)(=O)c2ccc(NC(=O)CSc3nc4ncc(Cl)cc4[nH]3)cc2)nc(C)n1,-10.4,"0.58 µM [falling, full curve]",–
CCCc1cc(=O)oc2cc(OC(C)C(=O)NCC3CCC(C(=O)O)CC3)ccc12 (centres undefined),1.62,–,–
COc1cccc2c1C(=O)c1c(O)c3c(c(O)c1C2=O)C[C@](O)(C(C)=O)C[C@H]3O[C@@H]1C[C@@H](N)[C@@H](O)[C@@H](C)O1,-92.8,"3.26 µM [falling, partial curve]","29.1 µM [falling, single point]"
CCOC(=O)c1cnc2ccc(C(=O)OC)cc2c1NCc1ccco1,-8.83,"6.51 µM [rising, single point]",–
C=CCn1c(NCc2ccccc2O)nc2ccccc21,-6.74,"29.1 µM [falling, single point]",–
C[C@H]1C=C(C(=O)N2CCOCC2)O[C@@H](OCc2ccc(CO)cc2)C1,20.3,"13 µM [rising, partial curve]",–
CCN(c1ccccc1)S(=O)(=O)c1ccc(C(=O)Nc2ccccn2)cc1,-21.8,"4.11 µM [falling, partial curve, poor fit]",–
NC(=O)c1ccsc1NC(=O)CCS(=O)(=O)c1ccc(Cl)cc1,–,"0.0058 µM [falling, full curve, poor fit]",–
Cc1cccc(N(C)C(=O)C2CCCN2S(=O)(=O)c2cccc3nsnc23)c1 (centres undefined),17.4,"0.58 µM [falling, single point]",–
Cc1cnn(-c2cc(N/N=C/c3ccc(F)cc3)ncn2)c1,10.4,"0.326 µM [rising, full curve, poor fit]",–
O=C(NCCc1ccc(Cl)cc1)C1CC(=O)N(CCc2ccccc2)C1 (centres undefined),35.3,"29.1 µM [rising, single point]","0.0103 µM [rising, full curve, poor fit]"
